The target in the test is Δ210-PIF3 (APA/APB motif-deleted PIF3). Description: pull-down; GST/strep-fused interacting protein (1.0 μg) held on glutathione resin, phytochrome (1.0 μg) in solution, Pr and Pfr forms both tested; 60 min at 4 °C in pull-down buffer (100 mM Tris-HCl pH 7.8, 1 mM EDTA, 150 mM NaCl, 100 μg/ml BSA); western blot with oat22 and anti-GST; both purified.

From paper PMC4869175, “Evidence that phytochrome functions as a protein kinase in plant light signalling” (Nature Communications, 2016) come the findings set out here.

Results are given in words; binding and its absence hold for the method and conditions named. Binding can be weak; no strength is given.

B1: Avena sativa phytochrome A, full-length wild type (natural protein, UniProt P06593 1-1129, looked up)
chain: MSSSRPASSSSSRNRQSSQARVLAQTTLDAELNAEYEESGDSFDYSKLVEAQRDGPPVQQGRSEKVIAYLQHIQKGKLIQTFGCLLALDEKSFNVIAFSENAPEMLTTVSHAVPSVDDPPRLGIGTNVRSLFSDQGATALHKALGFADVSLLNPILVQCKTSGKPFYAIVHRATGCLVVDFEPVKPTEFPATAAGALQSYKLAAKAISKIQSLPGGSMEVLCNTVVKEVFDLTGYDRVMAYKFHEDDHGEVFSEITKPGLEPYLGLHYPATDIPQAARLLFMKNKVRMICDCRARSIKVIEAEALPFDISLCGSALRAPHSCHLQYMENMNSIASLVMAVVVNENEEDDEAESEQPAQQQKKKKLWGLLVCHHESPRYVPFPLRYACEFLAQVFAVHVNREFELEKQLREKNILKMQTMLSDMLFREASPLTIVSGTPNIMDLVKCDGAALLYGGKVWRLRNAPTESQIHDIAFWLSDVHRDSTGLSTDSLHDAGYPGAAALGDMICGMAVAKINSKDILFWFRSHTAAEIRWGGAKNDPSDMDDSRRMHPRLSFKAFLEVVKMKSLPWSDYEMDAIHSLQLILRGTLNDASKPKREASLDNQIGDLKLDGLAELQAVTSEMVRLMETATVPILAVDGNGLVNGWNQKAAELTGLRVDDAIGRHILTLVEDSSVPVVQRMLYLALQGKEEKEVRFEVKTHGPKRDDGPVILVVNACASRDLHDHVVGVCFVAQDMTVHKLVMDKFTRVEGDYKAIIHNPNPLIPPIFGADEFGWCSEWNAAMTKLTGWNRDEVLDKMLLGEVFDSSNASCPLKNRDAFVSLCVLINSALAGEETEKAPFGFFDRSGKYIECLLSANRKENEGGLITGVFCFIHVASHELQHALQVQQASEQTSLKRLKAFSYMRHAINNPLSGMLYSRKALKNTDLNEEQMKQIHVGDNCHHQINKILADLDQDSITEKSSCLDLEMAEFLLQDVVVAAVSQVLITCQGKGIRISCNLPERFMKQSVYGDGVRLQQILSDFLFISVKFSPVGGSVEISSKLTKNSIGENLHLIDLELRIKHQGLGVPAELMAQMFEEDNKEQSEEGLSLLVSRNLLRLMNGDVRHLREAGVSTFIITAELASAPTAMGQ
modifications: phycocyanobilin chromophore assembled (chromophore-binding site C322)
notes: Avena sativa (oat) phytochrome A, full-length gene AsPHYA; 1129 residues by the printed construct limits (66-1129aa); Used as Pr (far-red irradiated) and Pfr (red irradiated) forms; also called AsphyA; FL-AsphyA; source: phycocyanobilin added in vitro
On to B1, for which the binding result was “binds weakly”.
